The results in this text go back to PubChem BioAssay AID342 (DTP/NCI, 2004).

The list shows only some results of the screen, not a fair sample: it is rich in T/C values a quarter to a half above the control, in often repeated tests (any T/C) and in doses without a T/C. Other doses and runs of a compound stand elsewhere. T/C: endpoint of the treated group in % of that of the vehicle group. Schedules are NCI's codes, taken here to give the interval after Q, in days (D) or hours (H), and the number of doses after X. Some T/C values are followed by the survivors on the day toxicity was checked, most often the fifth; without a count, all were alive then. Some entries were tested several times; the values are given in rising order. Some entries give survivors of the animals treated and no T/C: the source files T/C as zero there, which appears to mark a toxic dose or a test without result, not a measured value. Counts of survivors are from the toxicity check (mostly the fifth day) where no day follows; animals may have died later. Some schedule codes hold Z or #, which are not explained here. Some structures stand for samples that the source files as different forms (salt, stereo form or complex); doses refer to the form tested.

This assay relates to Swiss mice, Sarcoma 180 sc, mean tumor weight T/C. Nature of the assay: NCI In Vivo Anticancer Drug Screen. Data for tumor model Sarcoma 180 (subcutaneous) in Swiss mice. Conditions: T/C endpoint: mean tumor weight, higher T/C = larger tumour; for T/C: evaluated on day 8. The procedure: The antitumor activity of compounds was measured in mice bearing transplantable tumors. Survival or tumor size were measured and the results are expressed as the measurement made in the treated group (T) divided by the measurement made in the vehicle treated control group (C). The tumor model used in this assay is Sarcoma 180 (subcutaneous) in Swiss mice

The mark [1] stands for this setting: dose: 125.0 mg/kg/injection, schedule: Q01DX007 (ip), vehicle: carboxymethylcellulose (CMC).
Setting [2] is: dose: 250.0 mg/kg/injection, schedule: Q01DX007 (ip), vehicle: carboxymethylcellulose (CMC).
Setting [3] is: dose: 150.0 mg/kg/injection, schedule: Q01DX007 (ip), vehicle: carboxymethylcellulose (CMC).

For `O=C(O)c1cc2ccccc2c(Br)c1O.OC1CCC(Br)C2CCC[N-]C12.[Cu+]`, for the setting “dose: 0.5 mg/kg/injection, schedule: Q01DX007 (ip), vehicle: carboxymethylcellulose (CMC)”, the survivor count is listed as 3 of 6.
`O=C(O)C(=O)O.[U]`: the survivor count (dose: 41.7 mg/kg/injection, schedule: Q01DX007 (ip), vehicle: saline) is recorded as 3 of 6.
As for `N#Cc1cn(C2OC(CO)C(O)C2O)c2ncnc(N)c12` (centres undefined), the survivor count (dose: 0.1 mg/kg/injection, schedule: Q#A X014 (ip), vehicle: carboxymethylcellulose (CMC)) is listed as 4 of 7.
`O=C(Nc1ccc(Sc2ccc(N=Nc3c(O)c(S(=O)(=O)O)cc4cc(S(=O)(=O)O)ccc34)cc2)cc1)c1ccc(N=Nc2ccc3c(S(=O)(=O)O)cccc3c2O)cc1`: under setting [1], the survivor count is reported as 1 of 6.
For the molecule `O=C(O)c1ccccc1C(=O)OCc1ccccc1`, the T/C is, setting by setting: under setting [1], 131 % of control; under setting [2], 132 % of control [4 of 6 alive].
For `O=[N+]([O-])c1ccc(/C=N\Nc2ccc([N+](=O)[O-])cn2)cc1`, the survivor count by setting is: (dose: 18.0 mg/kg/injection, schedule: Q#A X014 (ip), vehicle: methylcellulose (MC)) 2 of 6; (dose: 27.0 mg/kg/injection, schedule: Q#A X014 (ip), vehicle: methylcellulose (MC)) 1 of 6.
As to `O=C1c2ccccc2C(=O)N1CCF`, the survivor count is 2 of 6 (dose: 16.0 mg/kg/injection, schedule: Q01DX007 (ip), vehicle: carboxymethylcellulose (CMC)); 0 of 6 (dose: 32.0 mg/kg/injection, schedule: Q01DX007 (ip), vehicle: carboxymethylcellulose (CMC)); 0 of 6 (dose: 62.5 mg/kg/injection, schedule: Q01DX007 (ip), vehicle: carboxymethylcellulose (CMC)); 0 of 6 under setting [1]; 0 of 6 under setting [2]; 0 of 6 (dose: 500.0 mg/kg/injection, schedule: Q01DX007 (ip), vehicle: carboxymethylcellulose (CMC)).
Take `S=C(N=Nc1ccccc1)NNc1ccccc1`: the survivor count is reported as 3 of 7 under setting [3] and 1 of 7 (dose: 300.0 mg/kg/injection, schedule: Q01DX007 (ip), vehicle: carboxymethylcellulose (CMC)).
With `Cn1cc(NC(=O)c2cc(NC(=O)c3cc(NC=O)cn3C)cn2C)cc1C(=O)NCCC(=N)N`, the survivor count (dose: 80.0 mg/kg/injection, schedule: Q01DX007 (sc), vehicle: water) is 3 of 6 and the survivor count (dose: 100.0 mg/kg/injection, schedule: Q01DX007 (sc), vehicle: water) is on record as 1 of 6.
On to `O=C(O)CC[S-].[Ag+]`, for which the survivor count (dose: 281.0 mg/kg/injection, schedule: Q#A X014 (ip), vehicle: methylcellulose (MC)) is 1 of 6.
As to `CS(=O)(=O)OCCCCCOS(C)(=O)=O`, the survivor count is, setting by setting: (dose: 37.5 mg/kg/injection, schedule: Q#A X014 (ip), vehicle: methylcellulose (MC)) 3 of 6; (dose: 56.5 mg/kg/injection, schedule: Q#A X014 (ip), vehicle: methylcellulose (MC)) 3 of 6.
`CN(C)C1=C(Cl)C(=O)C(=O)c2cccnc21`: the survivor count is 1 of 6 (dose: 25.0 mg/kg/injection, schedule: Q01DX007 (ip), vehicle: water) and 1 of 6 (dose: 50.0 mg/kg/injection, schedule: Q01DX007 (ip), vehicle: water).
Turning to `CN(C)[C@@H]1C(=O)C(C(=O)NCNC(CO)(CO)CO)=C(O)[C@@]2(O)C(=O)C3=C(O)c4c(O)cccc4[C@@](C)(O)[C@H]3C[C@@H]12`, the survivor count (dose: 187.5 mg/kg/injection, schedule: Q#A X014 (ip), vehicle: saline) is reported as 2 of 6; the survivor count (dose: 320.0 mg/kg/injection, schedule: Q01DX007 (ip), vehicle: saline) was 2 of 6; the survivor count (dose: 400.0 mg/kg/injection, schedule: Q01DX007 (ip), vehicle: other) was 0 of 6; the survivor count (dose: 420.0 mg/kg/injection, schedule: Q01DX007 (ip), vehicle: other) is listed as 2 of 6; the survivor count (dose: 480.0 mg/kg/injection, schedule: Q01DX007 (ip), vehicle: other) is listed as 0 of 6; the survivor count (dose: 600.0 mg/kg/injection, schedule: Q01DX007 (ip), vehicle: other) was 0 of 6.
On to `NCCCC(NC(=O)CCCCCCCCN=C(N)N)C(O)CCCCCCCCN=C(N)N` (centres undefined), for which the survivor count (dose: 20.0 mg/kg/injection, schedule: Q01DX007 (ip), vehicle: carboxymethylcellulose (CMC)) is given as 3 of 6.
Turning to `O=C(CCBr)N1CCCN(C(=O)CCBr)CC1`, the survivor count (dose: 334.0 mg/kg/injection, schedule: Q01DX007 (ip), vehicle: carboxymethylcellulose (CMC)) was 2 of 7.
With `CC(CNC(=O)CCBr)NC(=O)CCBr` (centres undefined), the survivor count (dose: 375.0 mg/kg/injection, schedule: Q01DX007 (ip), vehicle: carboxymethylcellulose (CMC)) is 1 of 6.
On to `O=C(O)c1cccc2c3c(cc([N+](=O)[O-])c12)CCCC3`, for which the T/C was 135 % of control (dose: 0.37 mg/kg/injection, schedule: Q01DX007 (ip), vehicle: carboxymethylcellulose (CMC)) and 137 % of control (dose: 0.75 mg/kg/injection, schedule: Q01DX007 (ip), vehicle: carboxymethylcellulose (CMC)).
For `NC(=O)c1cn(C2OC(CO)C(O)C2O)c2ncnc(N)c12` (centres undefined), the survivor count is, setting by setting: (dose: 0.25 mg/kg/injection, schedule: Q01DX007 (ip), vehicle: carboxymethylcellulose (CMC)) 3 of 6; (dose: 1.0 mg/kg/injection, schedule: Q01DX007 (ip), vehicle: carboxymethylcellulose (CMC)) 3 of 6; (dose: 2.0 mg/kg/injection, schedule: Q01DX007 (ip), vehicle: carboxymethylcellulose (CMC)) 0 of 6.
As for `NC1(C(=O)O)CCCC1`, the survivor count (dose: 112.5 mg/kg/injection, schedule: Q#A X014 (ip), vehicle: saline) is given as 2 of 6; the survivor count (dose: 250.0 mg/kg/injection, schedule: Q01DX007 (ip), vehicle: saline) is 3 of 6; the survivor count (dose: 500.0 mg/kg/injection, schedule: Q01DX007 (ip), vehicle: saline) is listed as 2 of 6.
As for `O=C(O)CCC(=O)CCl`, the survivor count (dose: 45.0 mg/kg/injection, schedule: Q01DX007 (ip), vehicle: saline) is recorded as 0 of 7.
Regarding `[N-]=[N+]=CC(=O)CCC(N)C(=O)O` (centres undefined), the survivor count (dose: 50.0 mg/kg/injection, schedule: Q#A X014 (ip), vehicle: saline) was 1 of 7 and 3 of 6.
Turning to `Cc1ccccc1N(C=O)c1ccccc1C`, the T/C was 147 % of control (dose: 50.0 mg/kg/injection, schedule: Q01DX007 (ip), vehicle: methylcellulose (MC)); 126 and 136 % of control [5 of 6 alive] (dose: 250.0 mg/kg/injection, schedule: Q01DX007 (ip), vehicle: methylcellulose (MC)). Besides, the survivor count (dose: 500.0 mg/kg/injection, schedule: Q01DX007 (ip), vehicle: methylcellulose (MC)) is on record as 2 of 6.
Turning to `CCCCCCCCCCCCCCCCC(C(=O)O)C(O)(CC(=O)O)C(=O)O` (centres undefined), the survivor count under setting [3] is on record as 0 of 7.
Consider `[N-]=[N+]=CC(=O)NCC(=O)NN`, for which the survivor count (dose: 750.0 mg/kg/injection, schedule: Q01DX007 (ip), vehicle: other) is recorded as 3 of 6; the survivor count (dose: 800.0 mg/kg/injection, schedule: Q01DX007 (ip), vehicle: water) was 3 of 6; the survivor count (dose: 900.0 mg/kg/injection, schedule: Q01DX007 (ip), vehicle: other) is 2 of 6.
With `CCCCn1cnc2c(SSc3ncnc4c3ncn4CCCC)ncnc21`, the survivor count was 1 of 6 (dose: 53.0 mg/kg/injection, schedule: Q01DX007 (ip), vehicle: saline); 2 of 7 (dose: 83.0 mg/kg/injection, schedule: Q01DX007 (ip), vehicle: carboxymethylcellulose (CMC)); 0 of 7 under setting [1]; 0 of 7 (dose: 187.0 mg/kg/injection, schedule: Q01DX007 (ip), vehicle: carboxymethylcellulose (CMC)); 2 of 6 (dose: 187.0 mg/kg/injection, schedule: Q01DX007 (ip), vehicle: saline).
